Results taken from publication PMC7956269.

B1: Cpsf2 (protein, UniProt Q9P2I0 1-782)
chain: MTSIIKLTTLSGVQEESALCYLLQVDEFRFLLDCGWDEHFSMDIIDSLRKHVHQIDAVLLSHPDPLHLGALPYAVGKLGLNCAIYATIPVYKMGQMFMYDLYQSRHNTEDFTLFTLDDVDAAFDKIQQLKFSQIVNLKGKGHGLSITPLPAGHMIGGTIWKIVKDGEEEIVYAVDFNHKREIHLNGCSLEMLSRPSLLITDSFNATYVQPRRKQRDEQLLTNVLETLRGDGNVLIAVDTAGRVLELAQLLDQIWRTKDAGLGVYSLALLNNVSYNVVEFSKSQVEWMSDKLMRCFEDKRNNPFQFRHLSLCHGLSDLARVPSPKVVLASQPDLECGFSRDLFIQWCQDPKNSIILTYRTTPGTLARFLIDNPSEKITEIELRKRVKLEGKELEEYLEKEKLKKEAAKKLEQSKEADIDSSDESDIEEDIDQPSAHKTKHDLMMKGEGSRKGSFFKQAKKSYPMFPAPEERIKWDEYGEIIKPEDFLVPELQATEEEKSKLESGLTNGDEPMDQDLSDVPTKCISTTESIEIKARVTYIDYEGRSDGDSIKKIINQMKPRQLIIVHGPPEASQDLAECCRAFGGKDIKVYMPKLHETVDATSETHIYQVRLKDSLVSSLQFCKAKDAELAWIDGVLDMRVSKVDTGVILEEGELKDDGEDSEMQVEAPSDSSVIAQQKAMKSLFGDDEKETGEESEIIPTLEPLPPHEVPGHQSVFMNEPRLSDFKQVLLREGIQAEFVGGVLVCNNQVAVRRTETGRIGLEGCLCQDFYRIRDLLYEQYAIV
B2: Gnl3 (protein, UniProt Q9BVP2 1-549)
chain: MKRPKLKKASKRMTCHKRYKIQKKVREHHRKLRKEAKKRGHKKPRKDPGVPNSAPFKEALLREAELRKQRLEELKQQQKLDRQKELEKKRKLETNPDIKPSNVEPMEKEFGLCKTENKAKSGKQNSKKLYCQELKKVIEASDVVLEVLDARDPLGCRCPQVEEAIVQSGQKKLVLILNKSDLVPKENLESWLNYLKKELPTVVFRASTKPKDKGKITKRVKAKKNAAPFRSEVCFGKEGLWKLLGGFQETCSKAIRVGVIGFPNVGKSSIINSLKQEQMCNVGVSMGLTRSMQVVPLDKQITIIDSPSFIVSPLNSSSALALRSPASIEVVKPMEAASAILSQADARQVVLKYTVPGYRNSLEFFTVLAQRRGMHQKGGIPNVEGAAKLLWSEWTGASLAYYCHPPTSWTPPPYFNESIVVDMKSGFNLEELEKNNAQSIRAIKGPHLANSILFQSSGLTNGIIEEKDIHEELPKRKERKQEEREDDKDSDQETVDEEVDENSSGMFAAEETGEALSEETTAGEQSTRSFILDKIIEEDDAYDFSTDYV
B3: Surf6 (protein, UniProt O75683 1-361)
chain: MASLLAKDAYLQSLAKKICSHSAPEQQARTRAGKTQGSETAGPPKKKRKKTQKKFRKREEKAAEHKAKSLGEKSPAASGARRPEAAKEEAAWASSSAGNPADGLATEPESVFALDVLRQRLHEKIQEARGQGSAKELSPAALEKRRRRKQERDRKKRKRKELRAKEKARKAEEATEAQEVVEATPEGACTEPREPPGLIFNKVEVSEDEPASKAQRRKEKRQRVKGNLTPLTGRNYRQLLERLQARQSRLDELRGQDEGKAQELEAKMKWTNLLYKAEGVKIRDDERLLQEALKRKEKRRAQRQRRWEKRTAGVVEKMQQRQDRRRQNLRRKKAARAERRLLRARKKGRILPQDLERAGLV
B4: Picalm (protein, UniProt Q13492 1-652)
chain: MSGQSLTDRITAAQHSVTGSAVSKTVCKATTHEIMGPKKKHLDYLIQCTNEMNVNIPQLADSLFERTTNSSWVVVFKSLITTHHLMVYGNERFIQYLASRNTLFNLSNFLDKSGLQGYDMSTFIRRYSRYLNEKAVSYRQVAFDFTKVKRGADGVMRTMNTEKLLKTVPIIQNQMDALLDFNVNSNELTNGVINAAFMLLFKDAIRLFAAYNEGIINLLEKYFDMKKNQCKEGLDIYKKFLTRMTRISEFLKVAEQVGIDRGDIPDLSQAPSSLLDALEQHLASLEGKKIKDSTAASRATTLSNAVSSLASTGLSLTKVDEREKQAALEEEQARLKALKEQRLKELAKKPHTSLTTAASPVSTSAGGIMTAPAIDIFSTPSSSNSTSKLPNDLLDLQQPTFHPSVHPMSTASQVASTWGDPFSATVDAVDDAIPSLNPFLTKSSGDVHLSISSDVSTFTTRTPTHEMFVGFTPSPVAQPHPSAGLNVDFESVFGNKSTNVIVDSGGFDELGGLLKPTVASQNQNLPVAKLPPSKLVSDDLDSSLANLVGNLGIGNGTTKNDVNWSQPGEKKLTGGSNWQPKVAPTTAWNAATMAPPVMAYPATTPTGMIGYGIPPQMGSVPVMTQPTLIYSQPVMRPPNPFGPVSGAQIQFM
B5: Sart1 (protein, UniProt O43290 1-800)
chain: MGSSKKHRGEKEAAGTTAAAGTGGATEQPPRHREHKKHKHRSGGSGGSGGERRKRSRERGGERGSGRRGAEAEARSSTHGRERSQAEPSERRVKREKRDDGYEAAASSKTSSGDASSLSIEETNKLRAKLGLKPLEVNAIKKEAGTKEEPVTADVINPMALRQREELREKLAAAKEKRLLNQKLGKIKTLGEDDPWLDDTAAWIERSRQLQKEKDLAEKRAKLLEEMDQEFGVSTLVEEEFGQRRQDLYSARDLQGLTVEHAIDSFREGETMILTLKDKGVLQEEEDVLVNVNLVDKERAEKNVELRKKKPDYLPYAEDESVDDLAQQKPRSILSKYDEELEGERPHSFRLEQGGTADGLRERELEEIRAKLRLQAQSLSTVGPRLASEYLTPEEMVTFKKTKRRVKKIRKKEKEVVVRADDLLPLGDQTQDGDFGSRLRGRGRRRVSEVEEEKEPVPQPLPSDDTRVENMDISDEEEGGAPPPGSPQVLEEDEAELELQKQLEKGRRLRQLQQLQQLRDSGEKVVEIVKKLESRQRGWEEDEDPERKGAIVFNATSEFCRTLGEIPTYGLAGNREEQEELMDFERDEERSANGGSESDGEENIGWSTVNLDEEKQQQDFSASSTTILDEEPIVNRGLAAALLLCQNKGLLETTVQKVARVKAPNKSLPSAVYCIEDKMAIDDKYSRREEYRGFTQDFKEKDGYKPDVKIEYVDETGRKLTPKEAFRQLSHRFHGKGSGKMKTERRMKKLDEEALLKKMSSSDTPLGTVALLQEKQKAQKTPYIVLSGSGKSMNANTITK
B6: Pycrl (protein, UniProt Q53H96 1-274)
chain: MAAAEPSPRRVGFVGAGRMAGAIAQGLIRAGKVEAQHILASAPTDRNLCHFQALGCRTTHSNQEVLQSCLLVIFATKPHVLPAVLAEVAPVVTTEHILVSVAAGVSLSTLEELLPPNTRVLRVLPNLPCVVQEGAIVMARGRHVGSSETKLLQHLLEACGRCEEVPEAYVDIHTGLSGSGVAFVCAFSEALAEGAVKMGMPSSLAHRIAAQTLLGTAKMLLHEGQHPAQLRSDVCTPGGTTIYGLHALEQGGLRAATMSAVEAATCRAKELSRK

What follows are binders tested against Biotin-FOXC1 (mouse) (UniProt Q61572) (assay: affinity purification with mass spectrometry; streptavidin-agarose precipitation of biotinylated FOXC1 from nuclear extract of stable HEK293T cells (293T-Biotin-FOXC1); IP350 buffer (350 mM NaCl, 20 mM Tris-HCl pH 7.5, 0.5% NP40, 1 mM EDTA, 10% glycerin); SDS-PAGE, LC-ESI-MS/MS; proteins of the 293T-Biotin control deducted).

binding, binds:
B1
B2
B3
B4
B5
B6

These are yes or no findings as the source states them, for the method shown. Binding seen in cells or lysates may run through a third protein. These calls come from enrichment with a bait or labelling near it, and not all partners need be listed.
